In the test the target is GFP-tagged JMJD6-Ex5 (human). Briefly: co-IP; HEK 293T lysates 48 h after co-transfection; anti-GFP beads (ChromoTek); input, flow-through and bound fractions blotted with anti-GFP, anti-HA or anti-Flag.

These are yes or no findings as the source states them, for the method shown. Binding seen in cells or lysates may run through a third protein. Binding can be weak; no strength is given. Sequences can lack the tags named with a protein.

This passage reports binding results from paper PMC7555845.

B1: Flag-tagged FCP1 (protein, UniProt Q9Y5B0 1-961)
chain: MEVPAAGRVPAEGAPTAAVAEVRCPGPAPLRLLEWRVAAGAAVRIGSVLAVFEAAASAQSSGASQSRVASGGCVRPARPERRLRSERAGVVRELCAQPGQVVAPGAVLVRLEGCSHPVVMKGLCAECGQDLTQLQSKNGKQQVPLSTATVSMVHSVPELMVSSEQAEQLGREDQQRLHRNRKLVLMVDLDQTLIHTTEQHCQQMSNKGIFHFQLGRGEPMLHTRLRPHCKDFLEKIAKLYELHVFTFGSRLYAHTIAGFLDPEKKLFSHRILSRDECIDPFSKTGNLRNLFPCGDSMVCIIDDREDVWKFAPNLITVKKYVYFQGTGDMNAPPGSRESQTRKKVNHSRGTEVSEPSPPVRDPEGVTQAPGVEPSNGLEKPARELNGSEAATPRDSPRPGKPDERDIWPPAQAPTSSQELAGAPEPQGSCAQGGRVAPGQRPAQGATGTDLDFDLSSDSESSSESEGTKSSSSASDGESEGKRGRQKPKAAPEGAGALAQGSSLEPGRPAAPSLPGEAEPGAHAPDKEPELGGQEEGERDGLCGLGNGCADRKEAETESQNSELSGVTAGESLDQSMEEEEEEDTDEDDHLIYLEEILVRVHTDYYAKYDRYLNKEIEEAPDIRKIVPELKSKVLADVAIIFSGLHPTNFPIEKTREHYHATALGAKILTRLVLSPDAPDRATHLIAARAGTEKVLQAQECGHLHVVNPDWLWSCLERWDKVEEQLFPLRDDHTKAQRENSPAAFPDREGVPPTALFHPMPVLPKAQPGPEVRIYDSNTGKLIRTGARGPPAPSSSLPIRQEPSSFRAVPPPQPQMFGEELPDAQDGEQPGPSRRKRQPSMSETMPLYTLCKEDLESMDKEVDDILGEGSDDSDSEKRRPEEQEEEPQPRKPGTRRERTLGAPASSERSAAGGRGPRGHKRKLNEEDAASESSRESSNEDEGSSSEADEMAKALEAELNDLM
Consider B1, for which the binding result is recorded as “binds”.
